{"source": "patent US5096886A", "about": "“Antibacterial polypeptides” (Kabigen AB, priority 1989, dated 1992)", "system": "bacteria", "assay": "Specific antibacterial activity of purification fractions (units relative to cecropin A)", "format": "cell-based", "conditions": "1 unit is defined as the activity of 1 ng of cecropin A", "note": "Part of at least one peptide drawing is inferred or uncertain, most often the ends. No end group written: not given here.", "data": [{"sequence": "SWLSKTAKKLENSAKKRISEGIAIAIQGGPR [purified peptide resulting from Step 4]", "values": [{"measurement": "specific activity", "result": "700-1200 units/μg"}]}]}
